Experimental data reported in the supplement of paper PMC12819154, “High-throughput peptide-centric local stability assay extends protein–ligand identification to membrane proteins, tissues and bacteria” (Nature Structural & Molecular Biology, 2025).
This is one part of the list. Most values lie at the level of the controls, where differences are scatter.

Chains of the proteins cited; added tags and fusions are not shown. Lines headed by an entry give the natural chain unless they say otherwise; changes in a name come on top.
UniProt P49757: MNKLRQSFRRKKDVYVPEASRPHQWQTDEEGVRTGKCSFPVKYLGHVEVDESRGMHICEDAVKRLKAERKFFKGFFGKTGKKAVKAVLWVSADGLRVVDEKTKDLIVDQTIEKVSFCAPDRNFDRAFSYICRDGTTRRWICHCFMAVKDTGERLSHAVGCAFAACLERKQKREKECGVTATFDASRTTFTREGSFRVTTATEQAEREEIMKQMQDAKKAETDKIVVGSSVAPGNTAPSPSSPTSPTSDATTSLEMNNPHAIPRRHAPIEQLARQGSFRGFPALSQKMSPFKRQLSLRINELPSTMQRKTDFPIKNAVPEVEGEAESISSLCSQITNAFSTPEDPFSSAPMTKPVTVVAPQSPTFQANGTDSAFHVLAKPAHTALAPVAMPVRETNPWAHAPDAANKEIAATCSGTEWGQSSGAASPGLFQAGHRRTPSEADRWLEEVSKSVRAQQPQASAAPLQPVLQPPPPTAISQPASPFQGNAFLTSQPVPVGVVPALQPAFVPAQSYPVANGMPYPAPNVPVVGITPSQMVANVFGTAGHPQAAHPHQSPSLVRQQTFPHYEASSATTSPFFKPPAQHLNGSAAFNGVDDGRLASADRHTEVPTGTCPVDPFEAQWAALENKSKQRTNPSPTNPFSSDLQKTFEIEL
UniProt P51857: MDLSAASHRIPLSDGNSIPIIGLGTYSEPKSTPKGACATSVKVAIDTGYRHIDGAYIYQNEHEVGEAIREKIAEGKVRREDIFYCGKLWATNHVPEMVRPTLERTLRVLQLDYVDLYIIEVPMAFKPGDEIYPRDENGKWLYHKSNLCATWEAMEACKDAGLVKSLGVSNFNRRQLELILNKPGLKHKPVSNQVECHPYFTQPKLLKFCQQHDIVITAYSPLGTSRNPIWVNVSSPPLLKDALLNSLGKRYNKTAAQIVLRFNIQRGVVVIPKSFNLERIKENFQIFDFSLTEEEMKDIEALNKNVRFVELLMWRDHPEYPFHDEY
UniProt P46934: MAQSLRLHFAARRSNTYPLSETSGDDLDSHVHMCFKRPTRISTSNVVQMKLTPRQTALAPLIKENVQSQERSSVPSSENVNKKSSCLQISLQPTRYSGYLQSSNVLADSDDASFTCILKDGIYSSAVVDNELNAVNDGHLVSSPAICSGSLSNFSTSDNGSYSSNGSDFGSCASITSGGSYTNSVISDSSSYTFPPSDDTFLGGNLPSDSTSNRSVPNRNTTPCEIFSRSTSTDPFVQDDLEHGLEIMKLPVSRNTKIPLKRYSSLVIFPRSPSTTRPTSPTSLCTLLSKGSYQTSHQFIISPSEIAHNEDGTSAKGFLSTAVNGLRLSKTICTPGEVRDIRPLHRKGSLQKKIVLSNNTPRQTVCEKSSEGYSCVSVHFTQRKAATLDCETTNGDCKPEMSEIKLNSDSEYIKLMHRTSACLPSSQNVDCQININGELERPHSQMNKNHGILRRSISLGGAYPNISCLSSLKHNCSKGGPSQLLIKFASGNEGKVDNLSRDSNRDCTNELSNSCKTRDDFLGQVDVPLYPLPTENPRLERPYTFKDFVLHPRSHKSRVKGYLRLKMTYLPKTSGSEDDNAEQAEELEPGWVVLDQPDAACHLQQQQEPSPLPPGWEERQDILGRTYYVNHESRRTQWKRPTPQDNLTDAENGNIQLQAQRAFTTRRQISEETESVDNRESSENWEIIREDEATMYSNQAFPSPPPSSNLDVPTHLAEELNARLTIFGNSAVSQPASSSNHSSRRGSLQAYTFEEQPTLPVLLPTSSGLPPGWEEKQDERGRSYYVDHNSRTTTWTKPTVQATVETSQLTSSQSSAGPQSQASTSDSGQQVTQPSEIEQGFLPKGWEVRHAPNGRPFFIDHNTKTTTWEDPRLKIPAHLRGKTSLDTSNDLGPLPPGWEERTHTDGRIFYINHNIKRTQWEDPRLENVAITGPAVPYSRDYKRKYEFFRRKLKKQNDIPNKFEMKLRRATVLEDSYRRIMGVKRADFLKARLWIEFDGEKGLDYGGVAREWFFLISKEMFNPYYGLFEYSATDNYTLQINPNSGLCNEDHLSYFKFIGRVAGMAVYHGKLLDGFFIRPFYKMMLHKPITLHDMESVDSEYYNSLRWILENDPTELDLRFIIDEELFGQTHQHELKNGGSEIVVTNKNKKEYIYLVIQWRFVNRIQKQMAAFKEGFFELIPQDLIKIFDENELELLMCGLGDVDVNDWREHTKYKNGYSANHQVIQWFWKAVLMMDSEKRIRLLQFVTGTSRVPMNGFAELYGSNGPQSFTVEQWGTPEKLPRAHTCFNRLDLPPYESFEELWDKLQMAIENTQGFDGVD
UniProt P51178: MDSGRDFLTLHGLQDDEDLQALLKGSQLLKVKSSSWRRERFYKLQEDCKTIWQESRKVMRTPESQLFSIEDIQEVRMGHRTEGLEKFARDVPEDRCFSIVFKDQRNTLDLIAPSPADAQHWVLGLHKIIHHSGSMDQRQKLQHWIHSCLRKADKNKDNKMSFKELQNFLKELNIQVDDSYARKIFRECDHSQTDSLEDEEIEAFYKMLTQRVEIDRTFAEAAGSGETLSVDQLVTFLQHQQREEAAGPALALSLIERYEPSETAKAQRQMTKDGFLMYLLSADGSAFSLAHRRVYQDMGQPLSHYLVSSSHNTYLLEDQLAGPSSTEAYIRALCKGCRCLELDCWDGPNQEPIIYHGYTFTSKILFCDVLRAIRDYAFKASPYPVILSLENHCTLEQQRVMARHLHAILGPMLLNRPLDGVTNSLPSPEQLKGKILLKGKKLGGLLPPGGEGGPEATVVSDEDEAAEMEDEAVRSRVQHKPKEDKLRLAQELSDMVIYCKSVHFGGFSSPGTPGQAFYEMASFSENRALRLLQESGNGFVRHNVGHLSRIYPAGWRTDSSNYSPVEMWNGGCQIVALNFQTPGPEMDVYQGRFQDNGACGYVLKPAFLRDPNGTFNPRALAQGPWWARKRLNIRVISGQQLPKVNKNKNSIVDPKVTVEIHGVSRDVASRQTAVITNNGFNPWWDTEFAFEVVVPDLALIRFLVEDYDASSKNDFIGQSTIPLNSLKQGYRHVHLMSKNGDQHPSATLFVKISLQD
UniProt P46939: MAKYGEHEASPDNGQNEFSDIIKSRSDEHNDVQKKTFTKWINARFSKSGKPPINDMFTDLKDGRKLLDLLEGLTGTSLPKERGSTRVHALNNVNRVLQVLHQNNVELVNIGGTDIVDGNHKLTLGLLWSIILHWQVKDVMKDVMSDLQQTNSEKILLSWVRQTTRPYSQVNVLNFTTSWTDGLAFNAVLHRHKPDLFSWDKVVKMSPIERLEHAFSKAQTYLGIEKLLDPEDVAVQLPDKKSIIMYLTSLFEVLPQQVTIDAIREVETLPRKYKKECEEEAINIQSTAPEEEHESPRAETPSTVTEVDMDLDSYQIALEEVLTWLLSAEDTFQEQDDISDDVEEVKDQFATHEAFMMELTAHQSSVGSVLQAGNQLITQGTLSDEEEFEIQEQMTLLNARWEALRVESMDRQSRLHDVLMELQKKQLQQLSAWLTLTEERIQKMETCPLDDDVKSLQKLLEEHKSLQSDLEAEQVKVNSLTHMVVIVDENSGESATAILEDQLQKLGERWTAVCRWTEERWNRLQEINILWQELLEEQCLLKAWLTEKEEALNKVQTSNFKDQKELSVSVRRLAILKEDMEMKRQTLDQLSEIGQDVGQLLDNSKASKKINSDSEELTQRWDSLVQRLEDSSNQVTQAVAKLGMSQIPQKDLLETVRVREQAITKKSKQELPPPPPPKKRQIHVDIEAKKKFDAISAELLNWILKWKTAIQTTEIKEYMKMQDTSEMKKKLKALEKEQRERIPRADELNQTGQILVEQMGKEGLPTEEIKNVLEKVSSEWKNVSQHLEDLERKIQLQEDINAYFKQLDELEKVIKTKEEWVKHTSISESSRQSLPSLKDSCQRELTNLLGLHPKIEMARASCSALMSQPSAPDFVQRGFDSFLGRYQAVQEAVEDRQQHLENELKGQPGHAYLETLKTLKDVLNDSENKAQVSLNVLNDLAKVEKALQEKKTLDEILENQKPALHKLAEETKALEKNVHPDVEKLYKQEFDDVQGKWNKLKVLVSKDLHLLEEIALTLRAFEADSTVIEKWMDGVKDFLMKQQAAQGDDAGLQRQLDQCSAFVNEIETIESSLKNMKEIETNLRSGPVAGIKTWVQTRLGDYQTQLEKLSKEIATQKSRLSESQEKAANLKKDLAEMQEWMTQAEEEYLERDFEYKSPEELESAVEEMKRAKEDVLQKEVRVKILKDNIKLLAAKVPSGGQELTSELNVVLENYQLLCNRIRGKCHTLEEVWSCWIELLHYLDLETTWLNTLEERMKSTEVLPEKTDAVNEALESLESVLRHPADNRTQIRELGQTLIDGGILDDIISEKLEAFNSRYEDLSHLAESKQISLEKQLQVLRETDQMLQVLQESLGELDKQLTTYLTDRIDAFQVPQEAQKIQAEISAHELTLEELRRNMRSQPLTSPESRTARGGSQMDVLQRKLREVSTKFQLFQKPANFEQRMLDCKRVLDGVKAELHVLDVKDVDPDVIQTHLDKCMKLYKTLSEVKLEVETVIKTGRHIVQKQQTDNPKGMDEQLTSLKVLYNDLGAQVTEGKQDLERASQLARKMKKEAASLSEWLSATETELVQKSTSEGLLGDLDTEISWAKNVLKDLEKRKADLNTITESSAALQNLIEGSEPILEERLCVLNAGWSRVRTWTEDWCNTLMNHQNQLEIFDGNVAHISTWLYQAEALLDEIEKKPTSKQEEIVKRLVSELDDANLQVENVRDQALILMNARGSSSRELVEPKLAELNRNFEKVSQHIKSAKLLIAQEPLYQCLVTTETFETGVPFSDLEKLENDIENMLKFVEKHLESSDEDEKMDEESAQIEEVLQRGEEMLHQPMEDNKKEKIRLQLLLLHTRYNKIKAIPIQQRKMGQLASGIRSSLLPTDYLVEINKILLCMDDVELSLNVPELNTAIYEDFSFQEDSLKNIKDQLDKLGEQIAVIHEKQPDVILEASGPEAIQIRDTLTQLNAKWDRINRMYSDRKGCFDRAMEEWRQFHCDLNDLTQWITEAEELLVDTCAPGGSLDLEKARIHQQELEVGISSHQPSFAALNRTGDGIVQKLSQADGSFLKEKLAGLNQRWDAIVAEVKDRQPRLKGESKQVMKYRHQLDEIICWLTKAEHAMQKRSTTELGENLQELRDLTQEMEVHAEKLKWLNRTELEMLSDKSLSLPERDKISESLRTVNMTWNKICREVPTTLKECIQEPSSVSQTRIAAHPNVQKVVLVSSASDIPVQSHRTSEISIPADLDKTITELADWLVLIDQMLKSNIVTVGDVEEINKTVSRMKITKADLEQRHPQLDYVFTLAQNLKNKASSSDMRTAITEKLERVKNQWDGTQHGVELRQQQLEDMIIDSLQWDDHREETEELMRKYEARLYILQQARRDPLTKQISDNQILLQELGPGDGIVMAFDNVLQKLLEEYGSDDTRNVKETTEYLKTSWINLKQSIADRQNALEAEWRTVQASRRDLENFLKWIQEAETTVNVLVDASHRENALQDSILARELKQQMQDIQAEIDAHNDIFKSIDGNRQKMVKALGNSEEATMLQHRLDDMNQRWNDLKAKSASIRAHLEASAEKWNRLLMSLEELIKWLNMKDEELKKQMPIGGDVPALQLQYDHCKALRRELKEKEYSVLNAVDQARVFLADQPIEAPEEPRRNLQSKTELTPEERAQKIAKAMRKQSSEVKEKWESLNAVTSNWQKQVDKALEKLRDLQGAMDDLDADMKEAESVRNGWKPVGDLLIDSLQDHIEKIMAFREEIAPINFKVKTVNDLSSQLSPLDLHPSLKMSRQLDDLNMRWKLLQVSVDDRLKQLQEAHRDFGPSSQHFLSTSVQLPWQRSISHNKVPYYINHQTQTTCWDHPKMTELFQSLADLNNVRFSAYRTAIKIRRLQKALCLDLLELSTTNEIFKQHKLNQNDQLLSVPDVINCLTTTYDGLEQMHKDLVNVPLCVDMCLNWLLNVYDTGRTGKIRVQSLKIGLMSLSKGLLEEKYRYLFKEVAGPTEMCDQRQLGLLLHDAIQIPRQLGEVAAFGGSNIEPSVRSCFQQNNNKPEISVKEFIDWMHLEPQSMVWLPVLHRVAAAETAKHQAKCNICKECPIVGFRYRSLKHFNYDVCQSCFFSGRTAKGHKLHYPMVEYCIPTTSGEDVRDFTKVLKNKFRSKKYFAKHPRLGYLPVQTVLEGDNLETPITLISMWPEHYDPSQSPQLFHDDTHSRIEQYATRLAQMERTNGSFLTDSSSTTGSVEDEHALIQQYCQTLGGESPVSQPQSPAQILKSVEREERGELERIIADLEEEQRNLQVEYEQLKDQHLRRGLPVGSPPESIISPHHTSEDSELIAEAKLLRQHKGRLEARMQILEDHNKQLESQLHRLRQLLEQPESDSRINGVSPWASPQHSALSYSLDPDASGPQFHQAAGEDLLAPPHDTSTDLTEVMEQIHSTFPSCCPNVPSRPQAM

Compound: Cc1nc(Nc2ncc(C(=O)Nc3c(C)cccc3Cl)s2)cc(N2CCN(CCO)CC2)n1 [dasatinib]
Assay: log2 fold change of tryptic peptide abundance, ligand vs vehicle (limited proteolysis) (log2 ratio); higher = more trypsin-susceptible (destabilized)
Details: ligand concentration: 5 uM; sample: K562 cleared lysate

Target | log2 fold change
RBM25 (peptide sequence: LVPLDYGEDDKNATK, peptide start residue: 712) (UniProt P49756) | -0.225
SMARCA2 (peptide sequence: GQPLPETLQLAVQGKR, peptide start residue: 195) (UniProt P51531) | -0.284
RABGGTB (peptide sequence: HADYIASYGSK, peptide start residue: 23) (UniProt P53611) | 0.423
STAT5B (peptide sequence: ATQLLEGLVQELQKK, peptide start residue: 57) (UniProt P51692) | -0.336
NUMB (peptide sequence: VSFCAPDRNFDR, peptide start residue: 114) (UniProt P49757) | -0.17
NOTCH1 (peptide sequence: VASFYCECPHGR, peptide start residue: 354) (UniProt P46531) | 0.231
AKR1D1 (peptide sequence: SLGVSNFNRR, peptide start residue: 165) (UniProt P51857) | 0.0671
UniProt P52737 (peptide sequence: HIKDHSGHEPK, peptide start residue: 120) | -0.389
DUSP3 (peptide sequence: AADFIDQALAQK, peptide start residue: 105) (UniProt P51452) | -0.103
PSEN1 (peptide sequence: MLVETAQER, peptide start residue: 270) (UniProt P49768) | -0.398
NOP2 (peptide sequence: QQLPEQPFEK, peptide start residue: 758) (UniProt P46087) | 0.0814
NEDD4 (peptide sequence: LLDGFFIRPFYK, peptide start residue: 1070) (UniProt P46934) | 0.809
RABIF (peptide sequence: VLQPGTALFSR, peptide start residue: 30) (UniProt P47224) | -0.187
SEPHS1 (peptide sequence: YGEGHQAWIIGIVEKGNR, peptide start residue: 345) (UniProt P49903) | -0.351
MTHFS (peptide sequence: GKICFIPR, peptide start residue: 75) (UniProt P49914) | 0.133
ARRB1 (peptide sequence: GMKDDKEEEEDGTGSPQLNNR, peptide start residue: 398) (UniProt P49407) | 0.186
NES (peptide sequence: SLGAWNLENLR, peptide start residue: 894) (UniProt P48681) | -0.147
FXR1 (peptide sequence: DVIEEHGPSEK, peptide start residue: 568) (UniProt P51114) | 0.155
HK2 (peptide sequence: GLSKETHASAPVK, peptide start residue: 498) (UniProt P52789) | -0.924
PLCD1 (peptide sequence: VQHKPKEDK, peptide start residue: 477) (UniProt P51178) | -0.371
UniProt P51787 (peptide sequence: GSAGLAK, peptide start residue: 26) | -0.194
RFX3 (peptide sequence: SDGLSTHR, peptide start residue: 169) (UniProt P48380) | -0.124
SLC16A1 (peptide sequence: DLHDANTDLIGR, peptide start residue: 225) (UniProt P53985) | 0.226
NDUFV1 (peptide sequence: GGAGFPTGLK, peptide start residue: 89) (UniProt P49821) | 0.309
UniProt P49674 (peptide sequence: HPQLHIESK, peptide start residue: 46) | -0.748
UniProt P49591 (peptide sequence: IEQFVYSSPHDNK, peptide start residue: 324) | 0.137
UTRN (peptide sequence: FQLFQKPANFEQR, peptide start residue: 1431) (UniProt P46939) | 0.462
HNMT (peptide sequence: AELGKDLQEPEFSAK, peptide start residue: 260) (UniProt P50135) | -0.39

2 entries drawn at random from the list so far, as already listed:
Target | log2 fold change
UTRN (peptide sequence: FQLFQKPANFEQR, peptide start residue: 1431) (UniProt P46939) | 0.462
ARRB1 (peptide sequence: GMKDDKEEEEDGTGSPQLNNR, peptide start residue: 398) (UniProt P49407) | 0.186
